Assay results: PMC5808446
Results are given in words; binding and its absence hold for the method and conditions named.

By UniProt entry, the sequences of proteins in these tests, tags left out. Where a name states a change or a piece, a line headed by the entry shows the natural chain unless it says otherwise. Residues count along the entry.
UniProt P03372: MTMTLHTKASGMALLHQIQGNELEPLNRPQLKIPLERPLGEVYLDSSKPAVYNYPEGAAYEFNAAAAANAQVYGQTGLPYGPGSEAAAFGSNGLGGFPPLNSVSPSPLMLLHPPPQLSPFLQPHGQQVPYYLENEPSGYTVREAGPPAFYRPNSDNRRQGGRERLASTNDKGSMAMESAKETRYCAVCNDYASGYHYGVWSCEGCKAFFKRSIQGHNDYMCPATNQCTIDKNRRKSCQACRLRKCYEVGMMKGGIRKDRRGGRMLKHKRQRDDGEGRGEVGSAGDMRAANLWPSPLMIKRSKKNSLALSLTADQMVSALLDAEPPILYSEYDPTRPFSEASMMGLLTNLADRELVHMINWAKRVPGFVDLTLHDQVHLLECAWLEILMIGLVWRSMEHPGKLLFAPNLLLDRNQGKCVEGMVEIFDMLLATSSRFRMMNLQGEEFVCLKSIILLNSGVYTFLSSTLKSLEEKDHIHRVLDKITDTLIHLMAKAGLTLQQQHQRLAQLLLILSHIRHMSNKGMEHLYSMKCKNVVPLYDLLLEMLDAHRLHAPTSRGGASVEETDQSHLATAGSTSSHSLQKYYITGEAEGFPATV
His-ERα fragment aa 1–300: residues 1-300 of P03372
His-ERα fragment aa 294–595: residues 294-595 of P03372
UniProt Q9HCE7: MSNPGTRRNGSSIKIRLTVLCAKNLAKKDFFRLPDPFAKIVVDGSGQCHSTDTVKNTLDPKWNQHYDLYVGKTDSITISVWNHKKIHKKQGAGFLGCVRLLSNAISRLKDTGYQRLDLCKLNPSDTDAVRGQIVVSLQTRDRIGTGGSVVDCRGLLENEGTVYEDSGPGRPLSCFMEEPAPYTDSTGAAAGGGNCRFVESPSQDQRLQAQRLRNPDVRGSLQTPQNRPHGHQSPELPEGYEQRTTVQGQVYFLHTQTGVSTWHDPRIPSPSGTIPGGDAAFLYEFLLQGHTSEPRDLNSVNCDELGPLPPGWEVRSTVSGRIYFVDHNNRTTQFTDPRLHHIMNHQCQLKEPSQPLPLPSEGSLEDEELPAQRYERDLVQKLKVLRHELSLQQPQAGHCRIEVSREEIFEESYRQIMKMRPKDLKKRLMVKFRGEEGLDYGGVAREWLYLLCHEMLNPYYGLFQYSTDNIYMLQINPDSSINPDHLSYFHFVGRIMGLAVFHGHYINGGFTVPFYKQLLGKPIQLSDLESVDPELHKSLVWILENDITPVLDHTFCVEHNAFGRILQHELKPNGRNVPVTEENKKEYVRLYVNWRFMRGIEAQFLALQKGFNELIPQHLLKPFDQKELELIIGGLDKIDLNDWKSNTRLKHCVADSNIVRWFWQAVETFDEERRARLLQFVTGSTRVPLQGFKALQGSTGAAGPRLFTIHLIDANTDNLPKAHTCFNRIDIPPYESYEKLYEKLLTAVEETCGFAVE

Tests used:
[1] = target: His-ERα fragment aa 1–300 (UniProt P03372); assay: pull-down; E. coli-expressed His-ERα fragments (Ni-NTA resin) and GST-SMURF1 (purified on glutathione-Sepharose); mixture 4 °C, 30 min with rotation; washed with PBS 30 mM imidazole and PBS 0.01% Triton X-100; eluted with 250 mM imidazole; SDS-PAGE; both purified
[2] = target: His-ERα fragment aa 294–595 (UniProt P03372); assay: as above

Q: What does the source list for “GST-fusion SMURF1 (from UniProt Q9HCE7 1-757) (enzyme)”?
A: binding [1]: no binding; binding [2]: no binding
